“And” between values parts separate entries of the source, which are not always exact repeats. Equal entries are not always repeated.
System: biofilm on the granite chips
Assay: Test Series #3a: amount of AHQ deposited in the biofilm
Set-up: species or system Prudhoe Bay sulfate reducing bacteria
Details: 0.254 mg AHQ

[Na+].[Na+].[O-]c1c2ccccc2c([O-])c2ccccc12 [AHQ, dialkali salt solution, anthrahydroquinone di-alkali salt]
% AHQ Deposited (centrifugation 20 sec): 30% and 33%
% AHQ Deposited (centrifugation 60 sec): 36% and 38%
